In patent US20180298056 (published 2018):

Assay: general procedure: solution-phase peptide synthesis; pentafluorophenyl active ester, triethylamine

(2S)—N—((S)-1-((S)-4-methyl-1-((R)-2-methyloxiran-2-yl)-1-oxopentan-2-ylcarbamoyl)-2-phenylethyl)-2-((S)-2-(2-morpholinoacetamido)-4-phenyl butanamido)-4-methylpentanamide
99.9%: final HPLC purity (coupling step) | final HPLC purity (purification step) | purity (crude or final not stated) (purification step, HPLC)
